Assay results taken from patent US20170114412A1.

Biological target: cytoplasmic domain of nephrin (yeast two-hybrid construct)
Experiment: yeast two-hybrid

B1: Robo2 intracellular domain (human), fused to the transcription activation domain of B42 (receptor, not shown: large carriers)
chain: YWRRKKRKGLSNYAVTFQRGDGGLMSNGSRPGLLNAGDPSYPWLADSWPATSLPVNNSNSGPNEIGNFGRGDVLPPVPGQGDKTATMLSDGAIYSSIDFTTKTSYNSSSQITQATPYATTQILHSNSIHELAVDLPDPQWKSSIQQKTDLMGFGYSLPDQNKGNNGGKGGKKKKNKNSSKPQKNNGSTWANVPLPPPPVQPLPGTELEHYAVEQQENGYDSDSWCPPLPVQTYLHQGLEDELEEDDDRVPTPPVRGVASSPAISFGQQSTATLTPSPREEMQPMLQAHLDELTRAYQFDIAKQTWHIQSNNQPPQPPVPPLGYVSGALISDLETDVADDDADDEEEALEIPRPLRALDQTPGSSMDNLDSSVTGKAFTSSQRPRPTSPFSTDSNTSAALSQSQRPRPTKKHKGGRMDQQPALPHRREGMTDEEALVPYSKPSFPSPGGHSSSGTASSKGSTGPRKTEVLRAGHQRNASDLLDIGYMGSNSQGQFTGEL
  binding: no binding

Results are given in words; binding and its absence hold for the method and conditions named. Tags and fused reporters may be left off the sequences shown.
